Holding throughout (experiment): cells
In one test the test system is HEK293T cells. The settings on record: Homo sapiens, HEK-293T, 48 h, read-out: IC50 (μM ± SD) normal HEK293T cells.
For another test, the system named is hypoxic HCT116 cells. The conditions noted are these: Homo sapiens, HCT-116, 48 h, read-out: Cytotoxicity IC50 (μM ± SD) HCT116.
Another test concerns hypoxic U251 cells. The settings on record: Homo sapiens, U-251, 48 h, read-out: Cytotoxicity IC50 (μM ± SD) U251.
For a further test, the system named is hypoxic LOX IMVI cells. The settings on record: Homo sapiens, 48 h, read-out: Cytotoxicity IC50 (μM ± SD) LOX IMVI.

This note sets out measurements from article PMC9979347 (ACS Omega, 2023).

Usually IC50 stands for the concentration that inhibits the measured activity by half. As to `CN[C@@H]1C[C@H]2O[C@@](C)([C@@H]1OC)n1c3ccccc3c3c4c(c5c6ccccc6n2c5c31)C(=O)NC4` [staurosporine, reference compound], the IC50 with HEK293T cells was 17.8 ± 0.91 µM; with hypoxic HCT116 cells, 5.72 ± 0.33 µM; in the test with hypoxic U251 cells it was 11.1 ± 0.51 µM; with hypoxic LOX IMVI cells it was 13.7 ± 0.65 µM.
